Experimental data: PubChem BioAssay AID1224829 (NIAID, 2016)
In all, the deposit lists about 3,800 reagents; below is an unselected part. 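Calls cover raised and lowered translocation; gene median uses one vendor's three siRNAs; qiagen siRNAs acted more weakly than ambion siRNAs.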 Entries without a mark were called inactive. The numbers tell different reagents against one gene apart.

Screen: 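Secondary check of hits that alter LPS-induced p65 translocation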 (follow-up of hits)
Cells: mouse RAW264.7 G9 macrophage reporter cells
Reagents: single siRNA against mouse genes, 100 nM
Timing: 2 days of siRNA knock-down, then 40 min of LPS before fixing
Challenge: LPS (Salmonella minnesota R595) at 10 ng/ml
Measured: 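High-content images after 40 min LPS exposure; GFP-p65 nucleus to surrounding ring signal ratio, normalised to plate median and non-targeting control wells, expressed as z-score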
Scale: p65 translocation z-score and gene median z-score, per vendor: higher = more nuclear NF-kappaB p65 after LPS
Rule for the call: 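Active means the replicate-mean z-score lies beyond plus or minus 2, in either direction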
Calls: active = changed p65 translocation (either direction); inactive = no clear change

Gene,reagent,siRNA vendor or control pool,"p65 translocation z-score, replicate mean","p65 translocation z-score, replicate 1","p65 translocation z-score, replicate 2","gene median z-score, per vendor"
Rpn2,1,ambion single siRNA,1.41,2.41,0.406,-3.14
Rpn2,2,ambion single siRNA,-3.53 (active),-3.06,-3.99,-3.14
Rpn2,3,ambion single siRNA,-4.49 (active),-5.76,-3.22,-3.14
Rpn2,4,qiagen single siRNA,3.06 (active),2.24,3.88,-0.425
Rpn2,5,qiagen single siRNA,-0.425,-0.191,-0.66,-0.425
Rpn2,6,qiagen single siRNA,-3.03 (active),-3.31,-2.76,-0.425
Stmn3,1,ambion single siRNA,0.604,1.07,0.137,-0.0286
Stmn3,2,ambion single siRNA,0.806,1.81,-0.194,-0.0286
Stmn3,3,ambion single siRNA,-2.39 (active),-2.52,-2.25,-0.0286
Stmn3,4,qiagen single siRNA,-0.478,-1.4,0.448,-0.118
Stmn3,5,qiagen single siRNA,0.863,0.487,1.24,-0.118
Stmn3,6,qiagen single siRNA,-3.23 (active),-0.684,-5.78,-0.118
Gdf1,1,qiagen single siRNA,-0.217,-0.248,-0.186,-1.3
Gdf1,2,qiagen single siRNA,-1.3,-1.3,,-1.3
Gdf1,3,qiagen single siRNA,-4.8 (active),-4.54,-5.06,-1.3
Aldh1a2,1,ambion single siRNA,-1.82,-1.95,-1.68,-3.21
Aldh1a2,2,ambion single siRNA,-3.88 (active),-4.14,-3.61,-3.21
Aldh1a2,3,ambion single siRNA,-3.85 (active),-4.9,-2.8,-3.21
Aldh1a2,4,qiagen single siRNA,0.25,0.586,-0.0849,-0.349
Aldh1a2,5,qiagen single siRNA,-0.54,-0.566,-0.513,-0.349
Aldh1a2,6,qiagen single siRNA,-0.554,-0.923,-0.184,-0.349

A portion of the results above, as a working copy:
Gene,reagent,siRNA vendor or control pool,"p65 translocation z-score, replicate mean","p65 translocation z-score, replicate 1","p65 translocation z-score, replicate 2","gene median z-score, per vendor"
Stmn3,4,qiagen single siRNA,-0.478,-1.4,0.448,-0.118
Stmn3,5,qiagen single siRNA,0.863,0.487,1.24,-0.118
Stmn3,6,qiagen single siRNA,-3.23 (active),-0.684,-5.78,-0.118
